The results in this text go back to PubChem BioAssay AID445 (National Center for Advancing Translational Sciences (NCATS), 2006).

Some of the results follow. Shown are side measurements of this screen, not its main read-out; they come without a call. Compounds called inactive in the main read-out are mostly missing here. The note in brackets gives the kind of curve behind each potency; many fits are weak.

A short description of this assay: IkB Signaling. Particulars: ABC-DLBCL IkBa-CBG/CBR dual luciferase ratio (green luciferase fused to IkBa over red control in OCI-Ly3 lymphoma cells), 4 h; measured here: control luc red channel unless noted. The procedure, abridged: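 Luminescence ratio of IκBα-fused green versus native red beetle luciferase in OCI-Ly3 cells, 4 h post-doxycycline with compound; red signal alone, scaled from basal (0%) to zero light (-100%), flagged nonspecific or cytotoxic effects.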
Consider `COc1ccc(Cl)cc1NC(=O)c1cnc2sc(N3CCOCC3)nn2c1=O`, for which the AC50 is 1.58 µM [falling, full curve].
With `COc1cc(C(=O)OCC(=O)Nc2ccc3c(c2)OC(F)(F)O3)ccc1OCc1c(C)noc1C` the figure was 25.1 µM [falling, partial curve]; with `CN1CCN(CCNC(=O)c2cnn(-c3ccc(Cl)cc3)c2C2CCN(C(=O)OC(C)(C)C)CC2)CC1`, 25.1 µM [falling, single point]; with `COc1ccc(CCNC(=O)C(C)n2nc(C)c3sc4ccccc4c3c2=O)c(OC)c1` (centres undefined), 1.58 µM [falling, full curve].
With `Cc1ccc(S(=O)(=O)Nc2ccc3nc(-c4cccc(Cl)c4)oc3c2)cc1` the figure was 20 µM [falling, partial curve].
With `Fc1ccc(Nc2nc3ccccc3n3cnnc23)c(F)c1` the figure was 2.51 µM [rising, partial curve]; with `COc1ccc(NC(=O)c2nc(-c3ccc(C)cc3)n3c2CCCCC3)cc1`, 20 µM [falling, partial curve].
For `O=C(c1ccc(F)cc1)n1nc(-c2cccnc2)nc1NCc1ccccc1`, the AC50 is 15.8 µM [falling, partial curve].
With `COc1ccc(-c2nc(NC(=O)c3cc(C(C)(C)C)nn3C)sc2C)cc1` the figure was 10 µM [falling, partial curve]; with `Cc1nc2nc(CNC(=O)c3cccc(F)c3)nn2c(C)c1CCC(=O)Nc1cccc(Cl)c1`, 20 µM [falling, single point]; with `Cc1nn(C(C)C(=O)Nc2ccccc2C(F)(F)F)c(=O)c2c1sc1ccccc12` (centres undefined), 7.94 µM [falling, partial curve].
`Cc1ccc(Nc2nc3nonc3[nH]c2=O)cc1`: the AC50 was 15.8 µM [falling, single point].
The figure for `CCc1cc(/C(Cc2ccc3ccccc3n2)=N\O)c(O)cc1O` is 0.158 µM [falling, full curve]; for `Cc1ccc(NC(=O)c2oc3ccc(S(=O)(=O)N4CCC5(CC4)OCCO5)cc3c2C)cc1Cl` it is 15.8 µM [falling, partial curve].
The figure for `COc1ccc(-c2nc3cc(NC(=O)COc4ccccc4C)ccc3o2)cc1` is 0.398 µM [rising, full curve].
Regarding `Cc1ccc(-c2cc(-c3ccccc3Cl)c(C#N)c(N)n2)o1`, the AC50 was 12.6 µM [falling, partial curve].
In the case of `COc1ccc(-c2nnc(SC(C)C(=O)Nc3ccc4c(c3)OCCO4)o2)cc1` (centres undefined), the AC50 was 25.1 µM [rising, partial curve].
With `CCCCC(=O)Nc1ccc(Br)cc1C(=O)O` the figure was 1.58 µM [falling, full curve]; with `O=C1CC(Sc2ncccn2)C(=O)N1c1ccccc1C(F)(F)F` (centres undefined), 15.8 µM [falling, partial curve]; with `CCOC(=O)C(C)NC(=O)c1c2c(nc3ccccc13)C(=O)N(C1CCCCC1)C2` (centres undefined), 7.94 µM [falling, full curve].
Consider `COc1cc(C(c2c(C)[nH][nH]c2=O)c2c(C)[nH][nH]c2=O)ccc1OC(=O)c1ccccc1OC`, for which the AC50 was 39.8 µM [falling, single point].
With `Oc1ccccc1-c1cc(-c2ccccc2Cl)[nH]n1` the figure was 39.8 µM [falling, single point]; with `Nc1nsc2ccccc12`, 15.8 µM [falling, partial curve]; with `COc1ccccc1CNC(=O)Cn1cc2c(n1)-c1c(oc(C(=O)N3CCOCC3)c1C)CC2`, 15.8 µM [falling, partial curve].
In the case of `COC(=O)c1sccc1S(=O)(=O)N(CC(=O)Nc1cccc(C)c1C)c1ccc(C)c(C)c1`, the AC50 was 25.1 µM [falling, single point].
The figure for `COC(=O)C1=C(CSCc2ccco2)NC(=O)NC1c1cc(C)ccc1C` (centres undefined) is 25.1 µM [falling, partial curve].
The figure for `COc1ccc(Cl)cc1N1CCN(CCNC(=O)Nc2ccccc2C)CC1` is 15.8 µM [falling, partial curve]; for `CCc1ccccc1NC(=O)c1ccc2c(c1)CCCN2S(C)(=O)=O` it is 1 µM [rising, partial curve].
Regarding `COc1ccc(Cn2c(CO)cnc2SCc2ccc(C)cc2)cc1`, the AC50 was 0.316 µM [falling, full curve, poor fit].
The figure for `CC(C)(C)OC(=O)N1CCC(c2c(C(=O)N3CCN(Cc4ccccc4)CC3)cnn2-c2cccc(Cl)c2)CC1` is 25.1 µM [falling, single point]; for `CC(C)CCNC(=O)C1CCN(C(=O)c2cc3sccc3n2Cc2ccc(Cl)cc2)CC1` it is 12.6 µM [falling, partial curve].
With `COc1ccc(-c2nc(CS(=O)CC(=O)NCCc3ccc(Cl)cc3)c(C)o2)cc1OC` (centres undefined) the figure was 1.26 µM [rising, partial curve].
`CCc1ccc(-n2nc(CO)c(C(=O)NC)n2)cc1`: the AC50 is 1.58 µM [rising, partial curve].
The figure for `COc1ccc(N(C)C(=O)CCC(=O)Nc2ccc3nc(N4CCOCC4)cc(C)c3c2)c(OC)c1` is 10 µM [falling, partial curve]; for `Cc1ccc2c(CC(=O)Nc3ccc(S(=O)(=O)N4CCCCC4)cc3)coc2c1C` it is 6.31 µM [falling, partial curve].
With `Oc1c(C(c2ccc(F)cc2)N2CCN(Cc3ccccc3)CC2)sc2nc(-c3ccco3)nn12` (centres undefined) the figure was 39.8 µM [falling, single point]; with `c1ccc(-c2ccccc2-c2nc(-c3cccnc3)no2)cc1`, 39.8 µM [falling, single point].
With `CCN(CC)S(=O)(=O)c1ccc2[nH]cc(C(=O)NCCC3=CCCCC3)c(=O)c2c1` the figure was 10 µM [falling, partial curve].
For the compound `CN1C(=O)C2(c3ccccc31)N(c1cccc(C(F)(F)F)c1)C(=O)CS2(=O)=O` (centres undefined), the AC50 was 20 µM [falling, single point].
The figure for `COc1ccc(Nc2nn3c(=O)c4cc5c(cc4nc3s2)OCO5)c(OC)c1` is 1.58 µM [falling, full curve, poor fit]; for `Cc1cccc(N(C)S(=O)(=O)c2cc(-c3cnc(C4CC4)o3)ccc2C)c1` it is 31.6 µM [falling, single point]; for `CCOc1ccc(/C=C/C(=O)Nc2ccc3nc(N(CC)CC)cc(C)c3c2)cc1OC` it is 25.1 µM [falling, partial curve].
The figure for `CC(C)Cn1c(-c2ccc(Cl)cc2)cnc1SCC(=O)N1CCOCC1` is 15.8 µM [falling, partial curve]; for `CCc1ccc(C2c3c(-c4ccccc4O)n[nH]c3C(=O)N2Cc2cccnc2)cc1` (centres undefined) it is 25.1 µM [falling, partial curve]; for `CCOc1ccc(NC(=O)Cn2nc3c(cc2=O)CC(C)CC3)cc1` (centres undefined) it is 0.0158 µM [falling, full curve, poor fit].
With `O=C1Nc2ccccc2C(O)(C(=O)NCc2ccco2)N1c1ccc(Cl)cc1` (centres undefined) the figure was 0.158 µM [rising, full curve]; with `O=C(CCSCCc1ccccn1)Nc1ccc(Cl)cc1`, 15.8 µM [falling, partial curve].
With `Cc1ccc2c(C)c(C(=O)N(Cc3ccc(N(C)C)cc3)Cc3ccco3)oc2c1C`, the AC50 is 20 µM [falling, partial curve].
With `Cc1ccc(C)c(N2CCN(C(=O)c3ccc(Cn4c(=O)[nH]c5ccccc5c4=O)cc3)CC2)c1` the figure was 10 µM [falling, partial curve].
The figure for `CCCCCC(=O)Nc1cc(N(C)C)nc2ccccc12` is 31.6 µM [falling, partial curve].
The figure for `COc1ccc2c(c1)c(N1CCCC1=O)c(C(=O)Nc1cc(C)c(Cl)cc1OC)n2C` is 10 µM [falling, partial curve]; for `Cc1ccc2c(c1)cc1c(=O)n(Cc3ccccc3Cl)nc(C)n12` it is 12.6 µM [falling, partial curve]; for `C=CCn1c(SCC(=O)Nc2nc3ccccc3s2)nnc1-c1ccccc1O` it is 7.94 µM [falling, partial curve].
Consider `CN1CCN(c2nc3c(S(=O)(=O)c4ccc(Cl)cc4)nnn3c3ccsc23)CC1`, for which the AC50 is 20 µM [falling, single point].
With `CCOC(=O)c1c(N)n(-c2ccc(CC)cc2)c2nc3ccccc3nc12` the figure was 15.8 µM [falling, partial curve]; with `Cc1ccccc1N1CCN(S(=O)(=O)c2ccc3oc(=O)ccc3c2)CC1`, 10 µM [falling, partial curve]; with `CCOc1ccc(NC(=O)CCCn2c(C)c3cnn(-c4ccccc4)c(=O)c3c2C)cc1`, 15.8 µM [falling, single point].
With `CCn1nc(C)c2c(-c3ccccc3)cc(=O)n(C(C)C(=O)NCCc3ccc(Cl)cc3)c21` (centres undefined) the figure was 25.1 µM [falling, partial curve].
The figure for `Cc1ccc2nc(-c3cccc(NC(=O)c4ccco4)c3)[nH]c2c1` is 15.8 µM [falling, partial curve]; for `CCOc1cccc(CNCCCSc2nnnn2C)c1` it is 3.98 µM [rising, partial curve]; for `Oc1c(C(c2ccccc2)N2CCCC2)sc2nc(-c3ccco3)nn12` (centres undefined) it is 7.94 µM [rising, partial curve].
Consider `CCOC(=O)Cc1ccc(NC(=O)NC(C)c2c(-n3cccc3)sc(C)c2C)cc1` (centres undefined), for which the AC50 was 39.8 µM [falling, single point].
On to `Cc1cc2oc(=O)c(CC(=O)O)c(C)c2c2occ(-c3ccccc3)c12`, for which the AC50 was 31.6 µM [falling, partial curve].
With `CCc1ccc2oc(-c3cc(NC(=O)c4cc(OC)c(OC)c(OC)c4)ccc3O)nc2c1` the figure was 7.94 µM [falling, partial curve, poor fit].
